No constants are given. Whether binding was seen depends on the method and setting. Some entries that bind do so weakly or less than the wild type.
Target: Apoferritin (UniProt P02791)
Experiment: native gel or EMSA; blue native PAGE (BN-PAGE); proteins at 0.3 mg/ml in 10 mM Tris pH 7.5, 50 mM NaCl; run at 4°C with Coomassie G-250 in the cathode buffer; both purified

binding: binds
B1: Apoferritin (protein, UniProt P02791 1-175)
chain: MSSQIRQNYSTEVEAAVNRLVNLYLRASYTYLSLGFYFDRDDVALEGVCHFFRELAEEKREGAERLLKMQNQRGGRALFQDLQKPSQDEWGTTLDAMKAAIVLEKSLNQALLDLHALGSAQADPHLCDFLESHFLDEEVKLIKKMGDHLTNIQRLVGSQAGLGEYLFERLTLKHD

Source: article PMC5493369
